Assay [1] concerns the target T1, TIAR, endogenous (human (endogenous in SK-N-BE(2)C)) (UniProt Q01085).
T1 sequence: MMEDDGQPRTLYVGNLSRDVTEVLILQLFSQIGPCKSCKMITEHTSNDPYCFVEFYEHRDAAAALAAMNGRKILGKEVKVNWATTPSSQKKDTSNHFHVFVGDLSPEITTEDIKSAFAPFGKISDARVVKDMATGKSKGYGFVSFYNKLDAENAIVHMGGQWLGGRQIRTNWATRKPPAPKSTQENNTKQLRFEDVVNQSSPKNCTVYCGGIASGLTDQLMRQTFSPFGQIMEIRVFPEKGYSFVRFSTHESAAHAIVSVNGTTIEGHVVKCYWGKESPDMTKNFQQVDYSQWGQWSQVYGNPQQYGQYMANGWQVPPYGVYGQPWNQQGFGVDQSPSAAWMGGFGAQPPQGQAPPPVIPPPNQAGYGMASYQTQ
Kind of assay: co-IP; anti-TIAR on sonicated lysates of SK-N-BE(2)C cells transfected with EGFP, EGFP-C1a or EGFP-C1b and kept at 37°C or 44°C for 1 h; Western blot. (Immunoblotting shows a protein as a band on a membrane.)

The target of assay [2] is EGFP fusion of the C1a domain of PKCα (human). Nature of the assay: co-IP; EGFP fusions of PKCα domains expressed in SK-N-BE(2)C cells, precipitated with anti-GFP-conjugated magnetic beads; polysome lysis buffer (100 mM KCl, 5 mM MgCl2, 10 mM HEPES, 1 mM DTT, 1% IgePAL CA-630, pH 7.0); Western blot for endogenous partners.
In assay [3] the target is EGFP fusion of the C1b domain of PKCα (human). The description is as above.
The target in assay [4] is EGFP fusion of the regulatory domain of PKCα (human). The assay is described as above.

Results are given in words; binding and its absence hold for the method and conditions named. Binding seen in cells or lysates may run through a third protein. For some assays here: Binding calls can cover weak binding; strength is not graded here.

Turning to “EGFP fusion of the C1b domain of PKCα (human) (domain or fragment)”, the binding entry in assay [1] is given as “no binding”.

Take “EGFP fusion of the C1a domain of PKCα (human) (domain or fragment)”: the binding entry in assay [1] is “binds”.

B1: RasGAP binding protein 2 (G3BP2), endogenous (protein, UniProt Q9UN86 1-482)
chain: MVMEKPSPLLVGREFVRQYYTLLNKAPEYLHRFYGRNSSYVHGGVDASGKPQEAVYGQNDIHHKVLSLNFSECHTKIRHVDAHATLSDGVVVQVMGLLSNSGQPERKFMQTFVLAPEGSVPNKFYVHNDMFRYEDEVFGDSEPELDEESEDEVEEEQEERQPSPEPVQENANSGYYEAHPVTNGIEEPLEESSHEPEPEPESETKTEELKPQVEEKNLEELEEKSTTPPPAEPVSLPQEPPKAFSWASVTSKNLPPSGTVSSSGIPPHVKAPVSQPRVEAKPEVQSQPPRVREQRPRERPGFPPRGPRPGRGDMEQNDSDNRRIIRYPDSHQLFVGNLPHDIDENELKEFFMSFGNVVELRINTKGVGGKLPNFGFVVFDDSEPVQRILIAKPIMFRGEVRLNVEEKKTRAARERETRGGGDDRRDIRRNDRGPGGPRGIVGGGMMRDRDGRGPPPRGGMAQKLGSGRGTGQMEGRFTGQRR
On to B1, for which the binding result in assay [2] was “binds”; in assay [3] it was “no binding”; in assay [4] it was “binds”.
